Test results reported in patent US8906897B2 (Obschestvo S Ogranichennoi Otvetstvennostiyu …, priority 2009, dated 2014).

Experiment: general procedure: Fmoc solid-phase peptide synthesis; 2-chlorotrityl chloride polymer

In the case of “N^α-[6(7)-(Protohemin IX)-yl]-ArgArgTrpTrpArgPhe-OH (RRWWRF; N-terminal protohemin IX; peptide of hemin deriative)”, the isolated yield (whole synthesis) is reported as 25%.
Substance “Protohemin IX 6(7)-Mono[Cyclo(Orn-Leu-D-Phe-Pro-Val)2])amide” has a conjugation yield (conjugation step) of 15%.
